In PubChem BioAssay AID1458 (National Center for Advancing Translational Sciences (NCATS), 2008):
The whole screen tested about 210,000 compounds, of which about 5,900 (2.8%) were called active. Another 5% or so got no clear call; they are omitted. Calls come from the whole dose curve; as a rule, active = well fitted activation curve with a large enough effect; inconclusive = small, poorly fitted or top-dose-only effect; inactive = no such curve, though single readings can be large or run the other way. This is a selection; strong and weak results do not stand in their true shares. Entries without a call were filed so in the source.

Assay: qHTS Assay for Enhancers of SMN2 Splice Variant Expression; note: nearly all actives have a fitted effect of over 55% in size; for activity change, positive = activation: % of control where 0% means no effect
Conditions: HEK293 SMN2-luciferase splicing reporter, luminescence, 30-36 h; activity change, positive = activation: at 46.1 µM (top of the series) unless noted
Method in brief: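 HEK293 cells carry an SMN2 […]–luciferase reporter in which exon 7 inclusion puts luciferase in frame. Cells were plated 10-12 h before compound addition, then incubated 30-36 h at 37C. ONE-Glo luminescence was read; sodium butyrate at 4.5 mM final served as control.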
Potency is the fitted concentration of half-maximal effect.

| Compound | activity change, positive = activation | Potency |
| --- | --- | --- |
| COc1cccc(C2CC(=O)Nc3cc4c(cc32)CCC4)c1 (centres undefined) | -43.1% | – |
| O=C(Nc1sc2c(c1C(=O)O)CCC2)c1ccccc1 | – | active: 10 µM |
| O=c1n(-c2ccc(Br)cc2)cnn1-c1ncccc1[N+](=O)[O-] | – | active: 12.6 µM |
| O=C(Nc1nc2ccc(SC(F)F)cc2s1)c1ccc2c(c1)S(=O)(=O)c1ccccc1C2=O | -25.2% | – |
| CCCCOc1ccc(C(=O)N/N=C/c2cn[nH]c2-c2ccc(OC)c(OC)c2)cc1 | inactive: -1.23% | – |
| Clc1nc(Cl)nc(N(c2ccccc2)c2ccccc2)n1 | 8.88% | – |
| COc1ccccc1C(=O)Nc1ccc2c3c(cccc13)CC2 | 59% | – |
| N#Cc1nc(-c2ccc(F)cc2)oc1NCc1ccccc1 | -33.5% | – |
| C=CCNc1nc(NCCN2CCOCC2)nc(N2CCOCC2)n1 | 30.3% | – |
| O=C(ONc1ccc(N=NC(=O)c2ccccc2O)cc1)c1ccccc1 | -32.2% | – |
| Cc1cc2nc(-c3cccnc3SCC(=O)NCc3ccco3)[nH]c2cc1C | – | active: 12.6 µM |
| CCCCOCCCNC(=O)c1c(-c2ccccc2)noc1C | 39.8% | – |
| Cc1cc(Cl)ccc1OCCCC(N)=O | 30.4% | – |
| COc1ccc(-c2nc(S(=O)(=O)c3ccc(Cl)cc3)c(NCc3ccccc3)o2)cc1 | 29.3% | – |
| COn1c(=O)c(-c2ccc(Cl)cc2)[n+]([O-])c2ccccc21 | 30.6% | – |
| O=C(NCCCn1ccnc1)C(=O)NCC1OCCN1S(=O)(=O)c1ccc(Br)cc1 (centres undefined) | inactive: -31.2% | – |
| C=C(C)CSc1nnc(-c2ccc(C)cc2)n1N | – | active: 8.91 µM |
| O=C(Nc1ccon1)c1cccc(C(F)(F)F)c1 | 35% | – |
| CCOc1ccc2cc(S(=O)(=O)N3CCOCC3)ccc2c1 | inactive: -46.5% | – |
| O=C(/C=C/c1ccco1)Nc1ccc2c(c1)OCO2 | – | active: 10 µM |
| O=C(NC1CCCC1)c1n[nH]c2ccccc12 | 267% | – |
| Cc1ccc(/C=C/C(=O)N2CCN(c3cccc(C(F)(F)F)c3)CC2)cc1 | -60.3% | – |
| CCOc1ccc(C(=O)NC2CCN(S(C)(=O)=O)CC2)cc1 | -35.8% | – |
| O=C(/C=C1\NC2(CCCC2)Cc2ccccc21)C(=O)N/N=C/c1ccc(O)c(O)c1 | 55% | – |
| Cc1nccc2[nH]c(=O)c(C(=O)NCCCN(C)C3CCCCC3)cc12 | 20% | – |
| Cc1ccc(NS(=O)(=O)c2ccc(N/N=C/c3ccncc3)c([N+](=O)[O-])c2)c(C)c1 | -13.6% | – |
| CCOc1ccc(C2=CS/C(=C(\C#N)c3nnc4n3CCCCC4)N2CC)cc1 | -48.1% | – |

| Compound | activity change, positive = activation | Potency |
| --- | --- | --- |
| COc1cc(C(CC(=O)O)n2cnnn2)ccc1OC(C)C (centres undefined) | -58.3% | – |
| CC(=O)N1CCN(C2c3cccc4cccc(c34)C2NS(=O)(=O)c2ccccc2)CC1 (centres undefined) | 43.9% | – |
| CCc1ccc(CNC(=O)c2cc3n(n2)CCCN(Cc2ccccc2)C3=O)cc1 | inactive: -54% | – |
| O=C(c1ccco1)N1CCC2(CC1)CCN(c1ccncc1)CC2 | inactive: -43.4% | – |
| Fc1ccc(C(c2nnnn2Cc2ccco2)N2CCN(C3CCCCC3)CC2)cc1 (centres undefined) | 53.7% | – |
| O=C(Nc1ccc(Cl)cc1)c1cc(S(=O)(=O)N2CCOCC2)cs1 | inactive: -64.6% | – |
| O=C(CSc1ccccc1C(=O)NCc1ccccc1)NC1CCCCCCC1 | inactive: -36.7% | – |
| O=C(Nc1ccc2c(c1)CCC2)c1ccccc1Br | 448% | – |
| CN(C)c1ccc(N/C=C/C(=O)c2ccco2)cc1 | 49.9% | – |
| Cc1nnc(N2CCN(Cc3ccccc3)CC2)[nH]c1=O | 31% | – |
| Cc1ccc(NC(=O)Cn2c(=O)n(CCC(=O)NC3CCN(Cc4ccccc4)CC3)c(=O)c3ccccc32)cc1 | -37.2% | – |
| Cc1ccc(C)n1NC(=O)c1ccccc1Cl | 24.3% | – |
| O=C(CCC1N=C2c3ccccc3N=C(SCc3ccccc3Cl)N2C1=O)NCCc1ccccc1 (centres undefined) | 40% | – |
| Cc1ccc2nc(-c3ccc(Cl)c(NC(=O)c4ccc5c(c4)OCCO5)c3)oc2c1 | inactive: -34.4% | – |
| O=C(CSc1nnc(-c2ccc(O)cc2)n1Cc1ccco1)c1cccs1 | 33.8% | – |
| CC(C)C(c1nnnn1C(C)(C)C)N1CCC(Cc2ccccc2)CC1 (centres undefined) | inactive: -48.8% | – |
| Cc1ccc(-c2nnc(NCc3nc4ccccc4[nH]3)c3ccccc23)cc1S(=O)(=O)N(C)C | inactive: -60.3% | – |
| O=C(CCCN1C(=O)CCC1=O)Nc1cccc(C(F)(F)F)c1 | -9.86% | – |
| Cc1c(C(=O)O)cnc2cc(-c3ccc(Cl)cc3)nn12 | – | active: 11.2 µM |
| O=C(NC1CCCCCC1)C1c2ccccc2C(=O)N1Cc1ccc(F)cc1 (centres undefined) | 41.4% | – |
| O=C(N/N=C/c1ccc2c(c1)OCO2)c1ccc(Br)o1 | – | active: 12.6 µM |
| COC(=O)c1ccc(OCC2c3cc(OC)c(OC)cc3CCN2C(C)=O)cc1 (centres undefined) | inactive: -37% | – |
| COc1ccc2sc(SCCCS(=O)(=O)O)[n+](CCCS(=O)(=O)[O-])c2c1 | 26.7% | – |
| O=c1o[nH]c(-c2ccccc2)c1C1=NCCCCC1 | 30.4% | – |
| CC(=O)N(/N=C1\Sc2ccccc2C1=O)c1ccc(C)cc1C | inactive: -67.5% | – |
| COc1cc(/C=N/N=C2/NC(=O)C(CC(=O)O)S2)ccc1OCc1ccc(Cl)cc1 (centres undefined) | – | active: 11.2 µM |
| Cc1ccc(S(=O)(=O)Nc2ccc3nc(C)sc3c2)cc1 | inactive: -51.8% | – |

Whole records from above.
Cc1nnc(N2CCN(Cc3ccccc3)CC2)[nH]c1=O as listed: activity change, positive = activation: 31%
CC(=O)N1CCN(C2c3cccc4cccc(c34)C2NS(=O)(=O)c2ccccc2)CC1 (centres undefined) as listed: activity change, positive = activation: 43.9%
